{"source": "PubChem BioAssay AID1259308 (NCATS, 2017)", "purpose": "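Genes whose loss raises luciferase production in HEK293 cells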 (primary screen)", "cells": "human HEK293 embryonic kidney cells stably expressing firefly luciferase (HEK-CMV-Luc2-Hygro)", "knock-down reagent": "single siRNA against human genes, 0.8 pmol siRNA per well", "duration": "72 h", "read-out": "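Luciferase light (ONE-Glo) measured on one replicate plate set and viability (CellTiter-Glo) on the other, scaled to a negative control siRNA, with robust z-scores and luciferase per cell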", "direction": "total luciferase, z-score: higher = more reporter protein produced", "hit rule": "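An siRNA counts as active if its total luciferase robust z-score exceeds 3; genes with two or more such siRNAs out of three were retested with fresh siRNAs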", "meaning of the calls": "active = raised luciferase; inactive = no rise", "note": "In all, the deposit lists about 59,000 reagents; shown is an unselected part. In the full data, about 1,510 (2.6%) got an active call. 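Calls use total luciferase alone and ignore viability, so some active siRNAs may act by altering cell number.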 Not all columns of the deposit are shown. Reagent sequences are not shown."}
{"target": "SYT16 (GeneID 83851)", "PubChem SID": "SID160751422", "total luciferase, z-score": 1.1, "Call": "inactive"}
{"target": "SYT16 (GeneID 83851)", "PubChem SID": "SID160751423", "total luciferase, z-score": 1.17, "Call": "inactive"}
{"target": "SYT16 (GeneID 83851)", "PubChem SID": "SID160751424", "total luciferase, z-score": -2.1, "Call": "inactive"}
{"target": "OCM (GeneID 654231)", "PubChem SID": "SID160771106", "total luciferase, z-score": 0.134, "Call": "inactive"}
{"target": "OCM (GeneID 654231)", "PubChem SID": "SID160771107", "total luciferase, z-score": 2.97, "Call": "inactive"}
{"target": "OCM (GeneID 654231)", "PubChem SID": "SID160771108", "total luciferase, z-score": -0.399, "Call": "inactive"}
{"target": "KCNJ1 (GeneID 3758)", "PubChem SID": "SID160731162", "total luciferase, z-score": -0.246, "Call": "inactive"}
{"target": "KCNJ1 (GeneID 3758)", "PubChem SID": "SID160776164", "total luciferase, z-score": 1.18, "Call": "inactive"}
{"target": "KCNJ1 (GeneID 3758)", "PubChem SID": "SID160776165", "total luciferase, z-score": 1.11, "Call": "inactive"}
{"target": "ZCCHC9 (GeneID 84240)", "PubChem SID": "SID160751937", "total luciferase, z-score": -1.23, "Call": "inactive"}
{"target": "ZCCHC9 (GeneID 84240)", "PubChem SID": "SID160751938", "total luciferase, z-score": -1.5, "Call": "inactive"}
{"target": "ZCCHC9 (GeneID 84240)", "PubChem SID": "SID160751939", "total luciferase, z-score": 1.98, "Call": "inactive"}

3 consecutive reagents already listed, for reference:
{"target": "SYT16 (GeneID 83851)", "PubChem SID": "SID160751422", "total luciferase, z-score": 1.1, "Call": "inactive"}
{"target": "SYT16 (GeneID 83851)", "PubChem SID": "SID160751423", "total luciferase, z-score": 1.17, "Call": "inactive"}
{"target": "SYT16 (GeneID 83851)", "PubChem SID": "SID160751424", "total luciferase, z-score": -2.1, "Call": "inactive"}

Further records:
{"target": "LRG1 (GeneID 116844)", "PubChem SID": "SID160755480", "total luciferase, z-score": 4.68, "Call": "active"}
{"target": "LRG1 (GeneID 116844)", "PubChem SID": "SID160755481", "total luciferase, z-score": -0.876, "Call": "inactive"}
{"target": "LRG1 (GeneID 116844)", "PubChem SID": "SID160755483", "total luciferase, z-score": -0.604, "Call": "inactive"}
{"target": "AMER3 (GeneID 205147)", "PubChem SID": "SID160761183", "total luciferase, z-score": 1.73, "Call": "inactive"}
{"target": "AMER3 (GeneID 205147)", "PubChem SID": "SID160761184", "total luciferase, z-score": -0.0719, "Call": "inactive"}
{"target": "AMER3 (GeneID 205147)", "PubChem SID": "SID160761185", "total luciferase, z-score": -0.986, "Call": "inactive"}
{"target": "CNOT2 (GeneID 4848)", "PubChem SID": "SID160733463", "total luciferase, z-score": -0.145, "Call": "inactive"}
{"target": "CNOT2 (GeneID 4848)", "PubChem SID": "SID160778141", "total luciferase, z-score": 0.24, "Call": "inactive"}
{"target": "CNOT2 (GeneID 4848)", "PubChem SID": "SID160778142", "total luciferase, z-score": -0.75, "Call": "inactive"}
{"target": "RIMBP2 (GeneID 23504)", "PubChem SID": "SID160736407", "total luciferase, z-score": 1.08, "Call": "inactive"}
{"target": "RIMBP2 (GeneID 23504)", "PubChem SID": "SID160736408", "total luciferase, z-score": -1.01, "Call": "inactive"}
{"target": "RIMBP2 (GeneID 23504)", "PubChem SID": "SID160736409", "total luciferase, z-score": -1.18, "Call": "inactive"}
{"target": "BMP5 (GeneID 653)", "PubChem SID": "SID160728280", "total luciferase, z-score": 0.295, "Call": "inactive"}
{"target": "BMP5 (GeneID 653)", "PubChem SID": "SID160728292", "total luciferase, z-score": 0.584, "Call": "inactive"}
{"target": "BMP5 (GeneID 653)", "PubChem SID": "SID160728302", "total luciferase, z-score": -0.153, "Call": "inactive"}
{"target": "TMEM185A (GeneID 84548)", "PubChem SID": "SID160752402", "total luciferase, z-score": 0.198, "Call": "inactive"}
{"target": "TMEM185A (GeneID 84548)", "PubChem SID": "SID160752403", "total luciferase, z-score": 1.96, "Call": "inactive"}
{"target": "TMEM185A (GeneID 84548)", "PubChem SID": "SID160752404", "total luciferase, z-score": 0.0726, "Call": "inactive"}
{"target": "C20orf202 (GeneID 400831)", "PubChem SID": "SID160767066", "total luciferase, z-score": 2.35, "Call": "inactive"}
{"target": "C20orf202 (GeneID 400831)", "PubChem SID": "SID160767067", "total luciferase, z-score": 4.35, "Call": "active"}
{"target": "C20orf202 (GeneID 400831)", "PubChem SID": "SID160767068", "total luciferase, z-score": -1.62, "Call": "inactive"}
